These are yes or no findings as the source states them, for the method shown. In cells and extracts the contact can be indirect. Some binding calls cover weakened binding; strength is not graded here. Where a sequence is shown, tags or fusion partners need not be part of it.
Legend:
[1] = target: T1, PEX12 (co-immunoprecipitation construct) (human) (UniProt O00623); assay: co-IP; HEK293T cells co-transfected with V5-tagged PEX and FLAG-tagged candidate, collected 36 h after transfection; IP with anti-V5 antibody on protein G beads, 4 C for 3 h, washed with lysis buffer; blot with anti-FLAG
T1 sequence: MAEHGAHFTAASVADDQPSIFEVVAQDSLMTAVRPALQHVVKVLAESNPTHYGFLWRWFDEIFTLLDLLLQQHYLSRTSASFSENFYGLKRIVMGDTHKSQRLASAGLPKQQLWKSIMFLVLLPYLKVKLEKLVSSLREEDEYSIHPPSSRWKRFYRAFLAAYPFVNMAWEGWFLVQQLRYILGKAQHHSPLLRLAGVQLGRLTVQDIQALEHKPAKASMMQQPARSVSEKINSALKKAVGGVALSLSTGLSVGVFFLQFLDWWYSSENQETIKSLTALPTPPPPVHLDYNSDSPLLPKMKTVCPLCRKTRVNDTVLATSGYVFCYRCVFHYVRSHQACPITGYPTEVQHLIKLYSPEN

[2] = target: T2, V5 tagged PEX10 (human) (UniProt O60683); assay: as above
T2 sequence: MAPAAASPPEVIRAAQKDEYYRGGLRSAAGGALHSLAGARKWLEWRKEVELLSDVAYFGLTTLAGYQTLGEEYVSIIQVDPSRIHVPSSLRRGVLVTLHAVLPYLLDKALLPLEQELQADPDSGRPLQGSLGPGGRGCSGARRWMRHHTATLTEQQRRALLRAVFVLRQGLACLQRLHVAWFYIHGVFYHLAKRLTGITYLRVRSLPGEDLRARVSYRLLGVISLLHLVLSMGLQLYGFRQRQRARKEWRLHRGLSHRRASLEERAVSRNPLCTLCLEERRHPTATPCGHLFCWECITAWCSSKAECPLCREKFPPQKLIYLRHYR

binding [1]: binds
binding [2]: binds
B1: FLAG-tagged CYB5R1 (protein, UniProt Q9UHQ9 1-305)
chain: MGIQTSPVLLASLGVGLVTLLGLAVGSYLVRRSRRPQVTLLDPNEKYLLRLLDKTTVSHNTKRFRFALPTAHHTLGLPVGKHIYLSTRIDGSLVIRPYTPVTSDEDQGYVDLVIKVYLKGVHPKFPEGGKMSQYLDSLKVGDVVEFRGPSGLLTYTGKGHFNIQPNKKSPPEPRVAKKLGMIAGGTGITPMLQLIRAILKVPEDPTQCFLLFANQTEKDIILREDLEELQARYPNRFKLWFTLDHPPKDWAYSKGFVTADMIREHLPAPGDDVLVLLCGPPPMVQLACHPNLDKLGYSQKMRFTY

Source: article PMC9076876
